Out of some 400,000 compounds screened, about 5,500 (1.4%) were called active. The shares of active, inactive and inconclusive entries below differ from those in the screen. Calls come from the whole dose curve; as a rule, active = well fitted cell-killing curve with a large enough effect; inconclusive = small, poorly fitted or top-dose-only effect, or effect the other way; inactive = flat fitted curve, though single readings scatter. Potencies of inconclusive entries are doubtful fits and often do not repeat.
assay: qHTS assay for MDR1-selective chemotherapeutics: Primary screen using the parental adenocarcinoma cell KB-3-1; conditions: KB-3-1 viability, CellTiter-Glo ATP luminescence, 72 h; series mostly up to 46.1 µM; note: nearly all actives have a fitted effect of over 60% in size
How it was run: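 Multi-concentration cytotoxicity screen in KB-3-1 cells grown in DMEM lacking phenol red with 10% FBS. After 72 h at 37 °C with compound, ATP-dependent luminescence was recorded.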
Potency is the fitted concentration of half-maximal effect.

SMILES | Potency
O=C1CC(Sc2ccc(Cl)cc2)C(=O)N1c1ccc2c(c1)OCCO2 (stereo not given) | inactive
CCOc1ccc(NC(=O)c2c(NC(=O)c3ccccc3F)sc3c2CCC3)cc1 | inactive
Cc1cc(C)cc(C(=O)NC(CC(N)=O)c2ccc(NC3CCCCC3)c([N+](=O)[O-])c2)c1 (stereo not given) | inactive
C=CCN1C(=O)/C(=C/c2ccc(OC(C)=O)c(OCC)c2[N+](=O)[O-])SC1=S | inconclusive: 29.1 µM [cytotoxic, single point]
COc1ccc(NC2c3ncccc3C(=O)N2Cc2ccccc2)c(OC)c1 (stereo not given) | inactive
COc1cc(N)c2ncccc2c1Br | inconclusive: 32.6 µM [cytotoxic, single point]
CCN(CCCNC(=O)CCn1c(=S)[nH]c2cc3c(cc2c1=O)OCO3)c1cccc(C)c1 | inactive
CCc1c(C)sc2c1CCN(C(=O)Nc1cc(Cl)c(OC)cc1OC)C2c1ccccc1 (stereo not given) | inactive
C[C@H]1CN([C@@H](C)CO)C(=O)c2cc(Br)cnc2O[C@H]1CN(C)C(=O)C1CC1 | inconclusive: 13 µM [rising, partial curve, poor fit]
Cc1cc(/C=C2/NC(=S)NC2=O)c(C)n1-c1cccnc1 | inconclusive: 9.2 µM [cytotoxic, partial curve]
O=[N+]([O-])c1cc(Br)c(Nc2ccccc2)c([N+](=O)[O-])c1 | inconclusive: 29.1 µM [cytotoxic, single point]
CCOC(=O)C1=CCN(S(=O)(=O)c2ccccc2Cl)C1c1cccc(Cl)c1 (stereo not given) | inactive
Cc1ccc(-c2nnc(Nc3ccc(OCC(N)=O)cc3)c3ccccc23)cc1S(=O)(=O)N(C)C | inconclusive: 29.1 µM [cytotoxic, single point]
C=C1CCC[C@]2(C)C[C@H]3OC(=O)C(CN4CCCCC4CO)[C@H]3CC12 (stereo not given in full) | inconclusive: 23.1 µM [cytotoxic, single point]
CN1C(=O)N(C)C(c2cccc([N+](=O)[O-])c2)C2=C1CCCC2=O (stereo not given) | inactive
CN(C)S(=O)(=O)c1cccc(N=C2NN=C(c3ccccc3)CS2)c1 | inconclusive: 20.6 µM [cytotoxic, single point]
CCN(Cc1ccccc1)C(=O)c1cc(S(=O)(=O)N2CCOCC2)cn1C | inactive
O=C(Cn1c(=O)n(Cc2ccco2)c(=O)c2ccccc21)Nc1cccc(Cl)c1 | inconclusive: 29.1 µM [cytotoxic, single point]
Cc1ccc(-c2nc(C(=O)NCC3CCCO3)cc3c2[nH]c2ccccc23)cc1 (stereo not given) | inconclusive: 29.1 µM [cytotoxic, single point]
Cc1cc(C)n(CCC(=O)N/N=C/c2ccccc2O)n1 | inconclusive: 32.6 µM [cytotoxic, single point]

Retrieved one by one from above, two records:
SMILES | Potency
CN(C)S(=O)(=O)c1cccc(N=C2NN=C(c3ccccc3)CS2)c1 | inconclusive: 20.6 µM [cytotoxic, single point]
O=[N+]([O-])c1cc(Br)c(Nc2ccccc2)c([N+](=O)[O-])c1 | inconclusive: 29.1 µM [cytotoxic, single point]

— PubChem BioAssay AID1347075 (National Center for Advancing Translational Sciences (NCATS), 2019)
